Some of the results follow.

Chains of the proteins cited; added tags and fusions are not shown. Lines headed by an entry give the natural chain unless they say otherwise; changes in a name come on top.
UniProt Q4G0P3: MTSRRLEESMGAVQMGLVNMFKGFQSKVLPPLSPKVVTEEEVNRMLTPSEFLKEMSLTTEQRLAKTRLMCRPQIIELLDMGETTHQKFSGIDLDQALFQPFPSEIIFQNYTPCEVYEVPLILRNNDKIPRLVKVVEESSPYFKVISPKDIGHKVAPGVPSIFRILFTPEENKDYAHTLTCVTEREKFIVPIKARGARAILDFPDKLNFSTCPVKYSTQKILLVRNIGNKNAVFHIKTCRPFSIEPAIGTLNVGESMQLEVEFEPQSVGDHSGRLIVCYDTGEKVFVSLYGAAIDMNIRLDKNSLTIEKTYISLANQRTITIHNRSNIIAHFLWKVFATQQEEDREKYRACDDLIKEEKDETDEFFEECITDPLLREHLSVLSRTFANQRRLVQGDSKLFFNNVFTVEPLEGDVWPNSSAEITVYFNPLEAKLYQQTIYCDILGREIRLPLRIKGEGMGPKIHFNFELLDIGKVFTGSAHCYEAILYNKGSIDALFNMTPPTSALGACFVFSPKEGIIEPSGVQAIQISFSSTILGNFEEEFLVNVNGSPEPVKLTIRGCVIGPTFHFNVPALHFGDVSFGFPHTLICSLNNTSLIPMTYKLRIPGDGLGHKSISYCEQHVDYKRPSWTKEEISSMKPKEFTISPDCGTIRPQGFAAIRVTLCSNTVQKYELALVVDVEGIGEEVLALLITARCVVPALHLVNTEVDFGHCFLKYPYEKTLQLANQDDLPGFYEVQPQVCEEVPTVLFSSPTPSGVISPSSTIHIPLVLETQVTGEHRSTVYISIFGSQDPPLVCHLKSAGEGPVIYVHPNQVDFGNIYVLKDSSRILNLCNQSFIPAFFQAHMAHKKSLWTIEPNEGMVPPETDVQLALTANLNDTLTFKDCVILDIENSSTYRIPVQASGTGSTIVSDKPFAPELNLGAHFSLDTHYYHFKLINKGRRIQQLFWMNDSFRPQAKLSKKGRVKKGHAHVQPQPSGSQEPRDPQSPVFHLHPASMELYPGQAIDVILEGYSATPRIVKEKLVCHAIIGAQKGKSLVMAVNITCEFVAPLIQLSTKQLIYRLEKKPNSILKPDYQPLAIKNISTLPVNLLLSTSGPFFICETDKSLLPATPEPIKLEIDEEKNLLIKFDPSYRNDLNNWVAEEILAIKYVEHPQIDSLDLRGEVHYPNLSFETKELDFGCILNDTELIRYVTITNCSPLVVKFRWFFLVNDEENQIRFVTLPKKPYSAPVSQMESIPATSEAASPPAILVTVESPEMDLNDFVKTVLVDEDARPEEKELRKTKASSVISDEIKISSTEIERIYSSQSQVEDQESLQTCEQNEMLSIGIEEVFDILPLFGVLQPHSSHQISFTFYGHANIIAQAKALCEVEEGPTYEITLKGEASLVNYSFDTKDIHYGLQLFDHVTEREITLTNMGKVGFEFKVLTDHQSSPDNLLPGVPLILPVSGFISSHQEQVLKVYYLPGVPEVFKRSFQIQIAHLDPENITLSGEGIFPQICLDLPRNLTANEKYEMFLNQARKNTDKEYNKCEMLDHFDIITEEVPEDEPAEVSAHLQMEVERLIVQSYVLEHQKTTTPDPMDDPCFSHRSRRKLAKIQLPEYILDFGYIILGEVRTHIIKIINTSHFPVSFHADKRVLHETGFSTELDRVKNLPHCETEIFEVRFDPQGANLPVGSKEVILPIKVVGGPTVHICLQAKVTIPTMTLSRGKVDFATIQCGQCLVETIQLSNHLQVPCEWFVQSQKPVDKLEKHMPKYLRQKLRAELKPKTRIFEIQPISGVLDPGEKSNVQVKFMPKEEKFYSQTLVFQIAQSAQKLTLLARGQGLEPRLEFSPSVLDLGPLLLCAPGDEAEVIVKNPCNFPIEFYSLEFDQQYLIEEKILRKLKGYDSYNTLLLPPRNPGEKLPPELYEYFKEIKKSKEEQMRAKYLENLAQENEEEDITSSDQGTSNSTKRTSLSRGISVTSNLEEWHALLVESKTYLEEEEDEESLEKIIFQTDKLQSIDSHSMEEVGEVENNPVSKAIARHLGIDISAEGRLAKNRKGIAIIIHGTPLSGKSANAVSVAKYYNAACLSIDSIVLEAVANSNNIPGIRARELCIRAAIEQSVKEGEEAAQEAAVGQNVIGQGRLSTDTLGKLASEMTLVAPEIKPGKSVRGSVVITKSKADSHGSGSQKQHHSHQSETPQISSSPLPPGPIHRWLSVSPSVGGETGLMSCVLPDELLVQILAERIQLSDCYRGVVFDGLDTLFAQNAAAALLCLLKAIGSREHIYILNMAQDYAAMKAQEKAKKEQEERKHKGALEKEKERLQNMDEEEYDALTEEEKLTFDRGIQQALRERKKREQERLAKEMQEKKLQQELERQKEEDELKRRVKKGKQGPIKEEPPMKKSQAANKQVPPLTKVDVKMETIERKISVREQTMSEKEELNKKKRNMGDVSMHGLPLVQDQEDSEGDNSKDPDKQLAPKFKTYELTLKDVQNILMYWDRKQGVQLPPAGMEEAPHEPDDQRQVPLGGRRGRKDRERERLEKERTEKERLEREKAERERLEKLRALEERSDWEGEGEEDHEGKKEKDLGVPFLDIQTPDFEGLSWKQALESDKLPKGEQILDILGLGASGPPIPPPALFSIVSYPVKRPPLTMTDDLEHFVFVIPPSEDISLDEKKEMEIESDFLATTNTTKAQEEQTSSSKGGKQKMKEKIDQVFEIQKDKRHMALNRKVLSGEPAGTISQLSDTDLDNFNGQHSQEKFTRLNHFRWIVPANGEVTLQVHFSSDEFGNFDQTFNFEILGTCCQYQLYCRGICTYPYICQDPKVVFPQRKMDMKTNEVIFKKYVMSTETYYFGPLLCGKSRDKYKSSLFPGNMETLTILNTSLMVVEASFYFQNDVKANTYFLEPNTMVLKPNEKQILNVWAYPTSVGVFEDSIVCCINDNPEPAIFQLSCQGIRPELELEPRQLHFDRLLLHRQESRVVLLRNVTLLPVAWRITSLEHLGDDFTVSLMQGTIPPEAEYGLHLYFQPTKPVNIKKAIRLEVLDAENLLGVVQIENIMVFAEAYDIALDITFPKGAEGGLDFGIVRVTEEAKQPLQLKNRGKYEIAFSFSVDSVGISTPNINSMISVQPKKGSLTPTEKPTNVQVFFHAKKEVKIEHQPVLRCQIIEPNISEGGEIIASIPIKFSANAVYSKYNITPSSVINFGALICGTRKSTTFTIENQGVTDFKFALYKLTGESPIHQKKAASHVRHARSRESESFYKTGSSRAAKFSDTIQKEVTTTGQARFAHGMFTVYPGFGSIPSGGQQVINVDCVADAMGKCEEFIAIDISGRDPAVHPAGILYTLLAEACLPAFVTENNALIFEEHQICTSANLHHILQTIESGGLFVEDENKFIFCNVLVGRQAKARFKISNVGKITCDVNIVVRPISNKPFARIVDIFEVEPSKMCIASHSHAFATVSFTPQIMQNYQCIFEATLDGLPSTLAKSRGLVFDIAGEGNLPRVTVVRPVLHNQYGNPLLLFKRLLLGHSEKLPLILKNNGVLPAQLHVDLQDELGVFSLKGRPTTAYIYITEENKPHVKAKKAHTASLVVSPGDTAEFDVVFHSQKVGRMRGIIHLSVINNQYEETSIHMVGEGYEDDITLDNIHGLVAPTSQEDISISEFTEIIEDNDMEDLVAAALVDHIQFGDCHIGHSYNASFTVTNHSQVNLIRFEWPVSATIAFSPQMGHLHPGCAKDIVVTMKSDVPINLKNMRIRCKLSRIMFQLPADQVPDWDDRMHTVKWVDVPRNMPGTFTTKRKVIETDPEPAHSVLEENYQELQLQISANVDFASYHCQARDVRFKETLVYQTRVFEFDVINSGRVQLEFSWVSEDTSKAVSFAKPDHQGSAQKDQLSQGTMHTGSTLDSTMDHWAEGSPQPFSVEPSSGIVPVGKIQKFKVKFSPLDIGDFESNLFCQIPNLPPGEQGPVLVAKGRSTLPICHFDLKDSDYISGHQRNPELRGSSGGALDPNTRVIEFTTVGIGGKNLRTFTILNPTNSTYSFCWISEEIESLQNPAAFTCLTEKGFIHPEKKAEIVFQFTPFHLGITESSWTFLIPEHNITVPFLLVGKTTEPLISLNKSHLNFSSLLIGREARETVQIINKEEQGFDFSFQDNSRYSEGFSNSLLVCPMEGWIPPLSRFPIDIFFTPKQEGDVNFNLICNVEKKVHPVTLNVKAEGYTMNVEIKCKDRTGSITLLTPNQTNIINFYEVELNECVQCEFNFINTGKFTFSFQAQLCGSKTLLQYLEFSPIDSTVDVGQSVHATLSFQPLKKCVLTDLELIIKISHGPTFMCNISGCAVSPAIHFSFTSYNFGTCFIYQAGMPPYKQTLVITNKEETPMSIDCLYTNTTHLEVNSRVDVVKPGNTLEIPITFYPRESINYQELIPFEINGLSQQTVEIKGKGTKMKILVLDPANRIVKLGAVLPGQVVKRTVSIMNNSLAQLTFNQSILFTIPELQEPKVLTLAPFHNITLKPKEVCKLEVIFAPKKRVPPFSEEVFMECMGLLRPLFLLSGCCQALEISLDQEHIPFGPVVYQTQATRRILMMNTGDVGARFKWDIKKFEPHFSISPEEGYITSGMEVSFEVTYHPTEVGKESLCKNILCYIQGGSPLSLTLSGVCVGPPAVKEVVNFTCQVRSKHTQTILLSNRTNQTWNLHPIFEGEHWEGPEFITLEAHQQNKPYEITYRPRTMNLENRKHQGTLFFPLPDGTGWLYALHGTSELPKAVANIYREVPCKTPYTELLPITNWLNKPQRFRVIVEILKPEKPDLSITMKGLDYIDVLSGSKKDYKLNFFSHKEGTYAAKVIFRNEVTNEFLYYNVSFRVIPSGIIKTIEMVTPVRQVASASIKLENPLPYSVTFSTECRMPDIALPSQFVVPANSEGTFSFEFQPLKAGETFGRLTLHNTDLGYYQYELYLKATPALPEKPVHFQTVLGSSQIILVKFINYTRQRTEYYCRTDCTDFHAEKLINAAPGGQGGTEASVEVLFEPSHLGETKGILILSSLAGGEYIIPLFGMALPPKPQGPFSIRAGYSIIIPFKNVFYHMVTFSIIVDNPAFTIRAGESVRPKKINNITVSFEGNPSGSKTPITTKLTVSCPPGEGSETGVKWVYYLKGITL
UniProt Q9NWB7: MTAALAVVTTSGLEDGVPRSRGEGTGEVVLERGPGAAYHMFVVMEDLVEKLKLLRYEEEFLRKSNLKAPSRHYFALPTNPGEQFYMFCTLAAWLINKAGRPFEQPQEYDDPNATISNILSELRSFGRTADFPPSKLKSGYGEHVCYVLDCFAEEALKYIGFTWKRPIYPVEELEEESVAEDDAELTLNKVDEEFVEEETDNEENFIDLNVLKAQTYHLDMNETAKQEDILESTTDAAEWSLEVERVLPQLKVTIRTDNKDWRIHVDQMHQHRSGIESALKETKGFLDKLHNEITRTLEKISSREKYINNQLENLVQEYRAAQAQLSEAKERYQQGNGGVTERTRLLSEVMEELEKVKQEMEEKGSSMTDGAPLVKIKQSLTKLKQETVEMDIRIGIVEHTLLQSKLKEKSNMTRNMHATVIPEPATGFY
UniProt Q9BYX4: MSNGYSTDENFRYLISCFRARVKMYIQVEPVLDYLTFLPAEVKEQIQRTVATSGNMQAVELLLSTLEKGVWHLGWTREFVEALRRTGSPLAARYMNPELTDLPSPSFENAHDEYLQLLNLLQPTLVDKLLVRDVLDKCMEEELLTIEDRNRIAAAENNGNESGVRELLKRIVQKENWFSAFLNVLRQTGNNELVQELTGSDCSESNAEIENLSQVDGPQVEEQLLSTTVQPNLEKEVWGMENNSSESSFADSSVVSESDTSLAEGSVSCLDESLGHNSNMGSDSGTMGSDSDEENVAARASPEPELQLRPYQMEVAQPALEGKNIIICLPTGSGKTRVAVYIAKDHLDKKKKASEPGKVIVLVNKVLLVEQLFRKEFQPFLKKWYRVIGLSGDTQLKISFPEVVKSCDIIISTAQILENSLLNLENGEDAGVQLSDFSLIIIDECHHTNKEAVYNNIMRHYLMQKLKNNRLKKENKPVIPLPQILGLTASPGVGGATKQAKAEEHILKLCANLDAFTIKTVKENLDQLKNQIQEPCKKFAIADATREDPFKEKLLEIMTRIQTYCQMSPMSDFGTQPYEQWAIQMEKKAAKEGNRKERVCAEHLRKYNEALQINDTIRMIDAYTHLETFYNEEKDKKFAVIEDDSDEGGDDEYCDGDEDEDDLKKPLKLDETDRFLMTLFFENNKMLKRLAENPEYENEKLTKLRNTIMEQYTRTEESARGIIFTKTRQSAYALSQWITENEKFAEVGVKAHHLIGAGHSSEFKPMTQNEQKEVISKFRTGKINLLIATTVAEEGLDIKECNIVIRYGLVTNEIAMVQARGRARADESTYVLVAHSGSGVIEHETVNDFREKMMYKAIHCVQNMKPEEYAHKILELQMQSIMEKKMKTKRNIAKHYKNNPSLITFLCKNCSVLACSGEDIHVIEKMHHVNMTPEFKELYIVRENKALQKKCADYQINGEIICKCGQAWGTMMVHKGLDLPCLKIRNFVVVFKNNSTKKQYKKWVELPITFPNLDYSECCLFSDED

Compound in the first assay: CC1=C2C(=CC=C1)N=C(N(C2=O)C3=CC=CC=C3C)CN4C=NC5=C(N=CN=C54)N
The assay can be described thus: log2 fold change, soluble protein after heating vs DMSO (PISA); higher = thermal stabilisation; K562 lysate, 10 uM; active = over 0.2 and 3.5 SD of the protein, either way, in both replicates (recomputed). An outline of the steps:
(§1)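 Following dounce homogenisation of K562 pellets in PBS pH 7.4 with 1 mM MgCl2, crude extract at 1 mg/mL protein was incubated for 30 min with 10 μM compound. Aliquots were then heated for 3 min over 48°C-58°C and pooled, NP-40 was added to 0.5% at 4°C, and soluble protein was recovered as the supernatant at 21,000xg for 90 min. Channel-sum-equalised TMTpro 16plex LC-MS/MS quantified this protein. Each value, from duplicates, is a log-two fold change in thermal stability relative to solvent controls.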
For IFT46 isoform 2 (UniProt Q9NQC8), the log2 fold change is inactive: -0.065. For the target IFT122 isoform 5 (UniProt Q9HBG6), the log2 fold change is inactive: 0.106. On the same count and under the same terms, in the case of HYDIN (UniProt Q4G0P3) it was inactive: -0.069; in that of IGSF1 isoform 4 (UniProt Q8N6C5), inactive: 0.033; in that of HYOU1 (UniProt J3QL06), inactive: 0.009. With IFT172 (UniProt Q9UG01), the log2 fold change is inactive: -0.023. As for IL10RB (UniProt Q08334), the log2 fold change was inactive: 0.042.

IGLL5 (UniProt B9A064): the log2 fold change is inactive: 0.065. With INIP (UniProt Q9NRY2), the log2 fold change is inactive: 0.09.

Compound in a further assay: Cc1sc2c(c1C)C(c1ccc(Cl)cc1)=N[C@@H](CC(=O)OC(C)(C)C)c1nnc(C)n1-2
Described as above. A digest of the protocol:
as §1
With IFIT3 (UniProt O14879), the log2 fold change was inactive: -0.037. For IFT57 (UniProt Q9NWB7), the log2 fold change was inactive: 0.018. Still for that read-out and setting: the value for IFT122 isoform 5 (UniProt Q9HBG6) was inactive: -0.014; that for INCENP (UniProt Q9NQS7) was inactive: 0.048; that for INO80B (UniProt Q9C086) was inactive: -0.153. Consider HYDIN (UniProt Q4G0P3), for which the log2 fold change was inactive: -0.078. Same read-out and setting: the value for HYOU1 (UniProt J3QL06) was inactive: -0.211; that for HUWE1 (UniProt H0Y659) was inactive: 0.094. On the same count and under the same terms, in the case of IFT172 (UniProt Q9UG01) it was inactive: 0.103.

As to IFNAR1 (UniProt P17181), the log2 fold change is inactive: 0.016. Still for that read-out and setting: the value for INAFM2 (UniProt P0DMQ5) was inactive: -0.098; that for IL10RB (UniProt Q08334) was inactive: -0.004. On the same count and under the same terms, in the case of IGKV3-20 (UniProt P01619) it was inactive: 0.107; in that of HSPBP1 (UniProt K7EMM7), inactive: 0.036. INIP (UniProt Q9NRY2): the log2 fold change was inactive: 0.021. Turning to IGHM isoform 2 (UniProt P01871), the log2 fold change is inactive: 0.169.

Compound in the next assay: c1ccc([C@@H]2C[C@H]2NC2CCNCC2)cc1
Described as above. An outline of the steps: as §1
In the case of IGHV3-72, A0A4W8ZXM2, the log2 fold change was inactive: -0.126. In the case of IFT46 isoform 2 (UniProt Q9NQC8), the log2 fold change was inactive: -0.083. Same read-out and setting: in the case of IGHA2 (UniProt P01877) it was inactive: -0.406; in that of IL13RA1 (UniProt P78552), inactive: -0.271; in that of IGKV3D-7, A0A0C4DH55, inactive: -0.161. Still for that read-out and setting: the value for INPP5E (UniProt Q9NRR6) was inactive: -0.038. For IGSF1 isoform 4 (UniProt Q8N6C5), the log2 fold change is inactive: -0.064. Consider IMP4 (UniProt Q96G21), for which the log2 fold change was inactive: 0.053. In the case of INO80 (UniProt Q9ULG1), the log2 fold change is inactive: 0.028. The same measure, in the same setting: the value for IDUA (UniProt P35475) was inactive: 0.022; that for IFNAR1 (UniProt P17181) was inactive: 0.074.

HTN3 (UniProt P15516): the log2 fold change was inactive: 0.046. On the same count and under the same terms, in the case of IGLL5 (UniProt B9A064) it was inactive: -0.245. Still for that read-out and setting: in the case of IGKV3-20 (UniProt P01619) it was inactive: -0.243; in that of IFIH1 (UniProt Q9BYX4), inactive: -0.133; in that of IL6ST (UniProt P40189), inactive: 0.162. Same read-out and setting: the value for IGHM isoform 2 (UniProt P01871) was inactive: -0.146.

Regarding IGKV1D-33, A0A2Q2TTZ9, the log2 fold change is inactive: -0.157. Still for that read-out and setting: in the case of INHBE (UniProt P58166) it was inactive: 0. Same read-out and setting: the value for HTRA3 (UniProt P83110) was inactive: -0.439.

(Values after the supplement of paper PMC10849652.)
